Source: the supplement of paper PMC12819154, “High-throughput peptide-centric local stability assay extends protein–ligand identification to membrane proteins, tissues and bacteria” (Nature Structural & Molecular Biology, 2025)
The list shows a part of the results. Most values lie at the level of the controls, where differences are scatter.

The chains behind the UniProt entries cited, without tags or fusion partners. Where a name states a change or a piece, a line headed by the entry shows the natural chain unless it says otherwise.
UniProt O95319: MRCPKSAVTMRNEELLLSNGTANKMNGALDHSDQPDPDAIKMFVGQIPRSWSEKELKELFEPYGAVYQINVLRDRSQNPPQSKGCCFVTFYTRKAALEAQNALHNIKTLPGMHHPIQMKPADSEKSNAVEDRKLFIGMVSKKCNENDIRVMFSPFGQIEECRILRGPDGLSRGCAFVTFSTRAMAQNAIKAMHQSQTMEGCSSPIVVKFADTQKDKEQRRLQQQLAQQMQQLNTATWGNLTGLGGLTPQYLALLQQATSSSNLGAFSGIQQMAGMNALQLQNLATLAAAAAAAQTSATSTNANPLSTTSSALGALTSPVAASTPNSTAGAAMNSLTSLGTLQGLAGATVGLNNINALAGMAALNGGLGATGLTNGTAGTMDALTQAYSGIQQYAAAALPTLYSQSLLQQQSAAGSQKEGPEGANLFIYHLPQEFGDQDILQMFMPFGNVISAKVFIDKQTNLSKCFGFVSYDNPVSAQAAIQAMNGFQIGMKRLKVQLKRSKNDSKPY
UniProt O75953: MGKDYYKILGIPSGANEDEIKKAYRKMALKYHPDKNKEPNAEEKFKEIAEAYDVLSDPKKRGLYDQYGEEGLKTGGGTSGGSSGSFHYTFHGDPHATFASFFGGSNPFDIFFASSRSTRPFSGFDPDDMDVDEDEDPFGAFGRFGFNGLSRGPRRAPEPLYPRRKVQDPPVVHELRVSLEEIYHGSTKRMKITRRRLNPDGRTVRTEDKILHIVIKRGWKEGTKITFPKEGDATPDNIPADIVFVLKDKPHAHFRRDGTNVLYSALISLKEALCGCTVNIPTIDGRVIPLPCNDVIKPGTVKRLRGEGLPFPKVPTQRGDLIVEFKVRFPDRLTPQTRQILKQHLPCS
UniProt O95997: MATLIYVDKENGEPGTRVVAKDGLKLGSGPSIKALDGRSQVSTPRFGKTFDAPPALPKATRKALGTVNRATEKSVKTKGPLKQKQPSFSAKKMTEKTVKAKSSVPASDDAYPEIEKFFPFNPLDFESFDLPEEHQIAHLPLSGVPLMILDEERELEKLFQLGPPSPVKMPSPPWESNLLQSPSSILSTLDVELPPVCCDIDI
UniProt O94964: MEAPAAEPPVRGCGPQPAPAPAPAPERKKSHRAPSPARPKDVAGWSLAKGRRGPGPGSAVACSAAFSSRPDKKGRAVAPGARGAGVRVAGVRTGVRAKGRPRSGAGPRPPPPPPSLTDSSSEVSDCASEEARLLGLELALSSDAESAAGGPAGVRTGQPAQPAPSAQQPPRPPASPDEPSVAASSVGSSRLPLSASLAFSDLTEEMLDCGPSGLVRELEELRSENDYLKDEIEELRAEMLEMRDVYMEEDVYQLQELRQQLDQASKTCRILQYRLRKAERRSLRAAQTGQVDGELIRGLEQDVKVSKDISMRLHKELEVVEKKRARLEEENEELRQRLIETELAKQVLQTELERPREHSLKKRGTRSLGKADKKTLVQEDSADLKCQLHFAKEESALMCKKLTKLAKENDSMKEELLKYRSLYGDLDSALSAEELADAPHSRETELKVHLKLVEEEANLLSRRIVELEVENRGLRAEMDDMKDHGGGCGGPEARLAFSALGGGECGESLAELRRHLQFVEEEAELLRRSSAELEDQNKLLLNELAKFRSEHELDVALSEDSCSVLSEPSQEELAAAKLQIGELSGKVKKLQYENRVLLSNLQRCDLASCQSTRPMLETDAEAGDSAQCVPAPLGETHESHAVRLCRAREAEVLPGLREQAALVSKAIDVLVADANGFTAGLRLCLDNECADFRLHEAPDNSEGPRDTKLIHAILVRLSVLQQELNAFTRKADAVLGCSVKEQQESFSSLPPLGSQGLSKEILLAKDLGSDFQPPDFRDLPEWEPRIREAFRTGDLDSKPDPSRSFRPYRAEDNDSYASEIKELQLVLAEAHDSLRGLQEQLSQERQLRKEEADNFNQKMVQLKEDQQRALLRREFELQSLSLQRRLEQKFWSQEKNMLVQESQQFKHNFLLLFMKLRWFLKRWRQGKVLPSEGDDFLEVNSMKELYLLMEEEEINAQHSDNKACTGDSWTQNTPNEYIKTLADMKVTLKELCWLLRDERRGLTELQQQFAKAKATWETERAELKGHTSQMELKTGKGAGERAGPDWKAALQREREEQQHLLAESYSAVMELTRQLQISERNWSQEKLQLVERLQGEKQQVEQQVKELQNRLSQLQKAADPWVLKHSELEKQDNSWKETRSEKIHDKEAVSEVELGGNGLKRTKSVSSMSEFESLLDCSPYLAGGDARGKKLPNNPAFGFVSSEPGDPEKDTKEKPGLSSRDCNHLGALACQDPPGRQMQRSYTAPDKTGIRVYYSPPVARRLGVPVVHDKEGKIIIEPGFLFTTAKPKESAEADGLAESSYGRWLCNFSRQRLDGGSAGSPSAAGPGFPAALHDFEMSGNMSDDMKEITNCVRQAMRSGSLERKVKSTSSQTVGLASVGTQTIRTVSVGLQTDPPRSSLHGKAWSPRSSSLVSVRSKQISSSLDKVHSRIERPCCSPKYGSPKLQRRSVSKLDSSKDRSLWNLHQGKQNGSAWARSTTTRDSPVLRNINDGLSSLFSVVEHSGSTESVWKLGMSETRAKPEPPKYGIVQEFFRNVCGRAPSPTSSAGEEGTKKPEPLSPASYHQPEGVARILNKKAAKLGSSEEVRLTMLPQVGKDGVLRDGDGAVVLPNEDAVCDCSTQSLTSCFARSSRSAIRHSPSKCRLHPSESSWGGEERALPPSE
UniProt O95573: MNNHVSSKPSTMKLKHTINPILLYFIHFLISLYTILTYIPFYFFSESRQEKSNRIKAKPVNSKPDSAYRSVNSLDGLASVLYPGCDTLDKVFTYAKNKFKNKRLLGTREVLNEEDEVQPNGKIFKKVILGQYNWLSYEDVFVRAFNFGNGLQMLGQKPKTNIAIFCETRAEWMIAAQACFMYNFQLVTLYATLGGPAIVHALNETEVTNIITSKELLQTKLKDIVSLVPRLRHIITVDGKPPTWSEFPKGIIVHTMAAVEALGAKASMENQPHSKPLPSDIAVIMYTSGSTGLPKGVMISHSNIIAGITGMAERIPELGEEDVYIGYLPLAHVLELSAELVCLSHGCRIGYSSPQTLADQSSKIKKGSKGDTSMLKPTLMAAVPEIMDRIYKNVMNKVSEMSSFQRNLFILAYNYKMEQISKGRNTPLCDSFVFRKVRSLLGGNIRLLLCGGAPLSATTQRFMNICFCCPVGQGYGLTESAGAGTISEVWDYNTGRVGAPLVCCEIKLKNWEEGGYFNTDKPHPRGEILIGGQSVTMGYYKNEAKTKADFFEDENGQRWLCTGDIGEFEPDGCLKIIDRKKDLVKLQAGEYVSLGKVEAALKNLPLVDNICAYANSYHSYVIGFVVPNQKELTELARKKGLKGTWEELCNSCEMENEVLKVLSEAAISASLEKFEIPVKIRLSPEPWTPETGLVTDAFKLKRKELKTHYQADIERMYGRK
UniProt O95503: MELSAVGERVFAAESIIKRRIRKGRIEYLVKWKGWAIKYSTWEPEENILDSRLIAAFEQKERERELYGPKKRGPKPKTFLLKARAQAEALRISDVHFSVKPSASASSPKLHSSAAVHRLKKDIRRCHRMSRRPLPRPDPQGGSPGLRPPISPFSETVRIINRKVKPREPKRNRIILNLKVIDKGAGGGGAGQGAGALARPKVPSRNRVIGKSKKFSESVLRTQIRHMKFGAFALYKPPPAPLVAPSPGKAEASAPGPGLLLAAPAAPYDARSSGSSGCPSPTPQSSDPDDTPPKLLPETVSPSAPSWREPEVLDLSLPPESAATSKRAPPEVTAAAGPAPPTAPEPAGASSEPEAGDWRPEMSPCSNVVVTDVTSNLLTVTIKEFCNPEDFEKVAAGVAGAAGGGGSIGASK
UniProt O95789: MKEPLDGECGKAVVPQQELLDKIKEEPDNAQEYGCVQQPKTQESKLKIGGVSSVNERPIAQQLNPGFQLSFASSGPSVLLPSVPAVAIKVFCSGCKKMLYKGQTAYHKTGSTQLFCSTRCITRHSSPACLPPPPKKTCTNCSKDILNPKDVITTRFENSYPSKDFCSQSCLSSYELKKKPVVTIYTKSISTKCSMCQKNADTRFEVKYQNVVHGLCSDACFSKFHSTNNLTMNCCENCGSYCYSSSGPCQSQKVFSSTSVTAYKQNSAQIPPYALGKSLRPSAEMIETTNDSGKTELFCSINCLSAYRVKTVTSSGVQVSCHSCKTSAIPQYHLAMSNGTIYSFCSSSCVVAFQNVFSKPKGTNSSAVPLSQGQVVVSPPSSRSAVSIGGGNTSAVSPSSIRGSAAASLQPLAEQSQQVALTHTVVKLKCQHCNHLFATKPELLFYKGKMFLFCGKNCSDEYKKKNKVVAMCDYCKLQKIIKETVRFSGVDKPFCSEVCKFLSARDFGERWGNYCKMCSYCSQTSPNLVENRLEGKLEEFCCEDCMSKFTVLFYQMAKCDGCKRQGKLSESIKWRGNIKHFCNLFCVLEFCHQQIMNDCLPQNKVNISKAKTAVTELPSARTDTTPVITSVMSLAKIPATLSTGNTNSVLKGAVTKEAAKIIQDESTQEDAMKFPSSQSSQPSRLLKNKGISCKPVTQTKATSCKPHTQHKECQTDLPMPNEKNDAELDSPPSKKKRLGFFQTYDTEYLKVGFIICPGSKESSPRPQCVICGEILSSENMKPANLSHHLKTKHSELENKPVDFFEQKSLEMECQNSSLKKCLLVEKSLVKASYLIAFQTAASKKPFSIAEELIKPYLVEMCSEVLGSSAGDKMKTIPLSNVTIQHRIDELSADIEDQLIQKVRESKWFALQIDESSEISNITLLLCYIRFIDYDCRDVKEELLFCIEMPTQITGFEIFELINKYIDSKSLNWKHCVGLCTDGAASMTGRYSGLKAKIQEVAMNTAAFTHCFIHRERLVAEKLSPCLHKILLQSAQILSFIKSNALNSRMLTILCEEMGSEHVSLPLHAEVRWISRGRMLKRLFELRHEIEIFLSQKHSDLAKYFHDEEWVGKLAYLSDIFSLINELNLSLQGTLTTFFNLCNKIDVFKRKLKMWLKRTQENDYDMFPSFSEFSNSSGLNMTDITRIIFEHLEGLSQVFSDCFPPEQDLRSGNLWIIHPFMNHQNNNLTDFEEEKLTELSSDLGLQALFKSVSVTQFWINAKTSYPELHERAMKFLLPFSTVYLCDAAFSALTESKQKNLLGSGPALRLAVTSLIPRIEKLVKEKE
UniProt O94992, whole entry: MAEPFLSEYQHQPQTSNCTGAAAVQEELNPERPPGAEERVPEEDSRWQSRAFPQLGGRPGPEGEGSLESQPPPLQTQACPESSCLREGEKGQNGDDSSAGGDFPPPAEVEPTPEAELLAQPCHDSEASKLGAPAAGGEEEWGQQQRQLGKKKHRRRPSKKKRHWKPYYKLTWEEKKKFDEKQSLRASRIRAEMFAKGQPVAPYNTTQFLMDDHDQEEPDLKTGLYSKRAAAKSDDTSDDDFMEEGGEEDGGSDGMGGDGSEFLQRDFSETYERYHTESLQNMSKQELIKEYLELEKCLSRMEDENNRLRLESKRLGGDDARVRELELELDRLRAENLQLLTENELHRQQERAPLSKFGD
UniProt O95544: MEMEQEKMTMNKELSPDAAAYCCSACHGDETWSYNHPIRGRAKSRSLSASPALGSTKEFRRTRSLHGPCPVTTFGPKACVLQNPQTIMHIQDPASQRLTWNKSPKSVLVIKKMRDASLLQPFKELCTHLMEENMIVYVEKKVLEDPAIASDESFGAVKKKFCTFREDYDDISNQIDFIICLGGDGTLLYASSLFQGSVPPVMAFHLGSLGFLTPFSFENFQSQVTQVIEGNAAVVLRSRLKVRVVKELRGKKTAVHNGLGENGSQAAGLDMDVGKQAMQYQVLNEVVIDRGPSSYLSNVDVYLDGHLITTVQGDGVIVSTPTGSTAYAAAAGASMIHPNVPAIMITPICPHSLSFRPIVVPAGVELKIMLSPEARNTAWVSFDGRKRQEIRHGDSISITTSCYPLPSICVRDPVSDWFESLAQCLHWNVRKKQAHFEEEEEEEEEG
UniProt O75489, whole entry: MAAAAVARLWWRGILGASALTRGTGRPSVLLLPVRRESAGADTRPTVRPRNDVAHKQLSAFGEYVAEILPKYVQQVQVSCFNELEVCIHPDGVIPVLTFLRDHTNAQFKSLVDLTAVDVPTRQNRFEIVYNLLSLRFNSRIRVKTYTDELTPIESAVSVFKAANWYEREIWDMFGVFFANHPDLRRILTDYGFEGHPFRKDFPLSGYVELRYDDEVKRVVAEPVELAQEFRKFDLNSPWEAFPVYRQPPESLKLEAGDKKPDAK

Compound: CN[C@@H]1C[C@H]2O[C@@](C)([C@@H]1OC)n1c3ccccc3c3c4c(c5c6ccccc6n2c5c31)C(=O)NC4 [staurosporine]
Assay: log2 fold change of tryptic peptide abundance, ligand vs vehicle (limited proteolysis) (log2 ratio); higher = more trypsin-susceptible (destabilized)
Details: ligand concentration: 20 uM; sample: K562 cleared lysate; digestion: 4 min, 22 C (HT-PELSA RT4min, Orbitrap Astral)

Target | log2 fold change
UniProt O95319 (peptide sequence: MFVGQIPR, peptide start residue: 42) | 0.239
UniProt O75953 (peptide sequence: FGFNGLSR, peptide start residue: 144) | 0.0664
PTTG1 (peptide sequence: ATLIYVDKENGEPGTR, peptide start residue: 2) (UniProt O95997) | -0.0954
SOGA1 (peptide sequence: EREEQQHLLAESYSAVMELTR, peptide start residue: 815) (UniProt O94964) | 0.64
ACSL3 (peptide sequence: THYQADIER, peptide start residue: 707) (UniProt O95573) | 0.258
UniProt O95503 (peptide sequence: ISDVHFSVKPSASASSPK, peptide start residue: 92) | -0.644
UniProt O95789 (peptide sequence: AVVPQQELLDK, peptide start residue: 12) | 0.226
TRIM37 (peptide sequence: LQDLGMELLAK, peptide start residue: 732) (UniProt O94972) | 0.221
HEXIM1 (peptide sequence: EYLELEKCLSR, peptide start residue: 290) (UniProt O94992) | -0.212
NADK (peptide sequence: MEMEQEK, peptide start residue: 1) (UniProt O95544) | 0.342
NDUFS3 (peptide sequence: ILTDYGFEGHPFR, peptide start residue: 187) (UniProt O75489) | 0.633

A portion of the results above, as a working copy:
Target | log2 fold change
UniProt O95789 (peptide sequence: AVVPQQELLDK, peptide start residue: 12) | 0.226
TRIM37 (peptide sequence: LQDLGMELLAK, peptide start residue: 732) (UniProt O94972) | 0.221
